The results in this text go back to patent EP2717940B1.

The chains behind the UniProt entries cited, without tags or fusion partners. Residues count along the entry.
UniProt P41597: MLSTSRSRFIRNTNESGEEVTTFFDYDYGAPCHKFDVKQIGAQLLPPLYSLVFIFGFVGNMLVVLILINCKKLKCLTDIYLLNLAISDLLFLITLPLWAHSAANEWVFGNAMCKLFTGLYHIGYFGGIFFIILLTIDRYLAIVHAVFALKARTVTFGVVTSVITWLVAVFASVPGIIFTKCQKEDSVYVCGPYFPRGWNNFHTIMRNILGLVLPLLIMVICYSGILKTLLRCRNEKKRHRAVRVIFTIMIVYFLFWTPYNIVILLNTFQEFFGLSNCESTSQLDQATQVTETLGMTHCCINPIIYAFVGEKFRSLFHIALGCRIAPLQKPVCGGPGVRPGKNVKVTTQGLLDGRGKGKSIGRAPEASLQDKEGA
UniProt P13500, residues 24-99: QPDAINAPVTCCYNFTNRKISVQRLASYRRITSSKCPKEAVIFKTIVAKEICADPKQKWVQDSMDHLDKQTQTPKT

No constants are given. Whether binding was seen depends on the method and setting. Some results given as binding are weak or reduced against the parent protein; the word gives no strength.

For this assay, the target named is chemokine (C-C motif) receptor 2 (CCR2) on peripheral blood cells (human) (UniProt P41597). Briefly: flow cytometry on monocytes of peripheral blood from IBD patients. In general terms: In flow cytometry, cells or beads pass a laser one at a time.

For the substance “biotinylated and Alexa647 Fluor labeled MCP-1 (from UniProt P13500 24-99) (ligand)”, the binding entry is reported as “binds”.
